Results are given in words; binding and its absence hold for the method and conditions named. In cells and extracts the contact can be indirect. Some binding calls cover weakened binding; strength is not graded here. Sequences can lack the tags named with a protein.
What was measured:
Assay in all cases: co-IP
[1] = molecular target: T1, Flag-aa 1-931 LUZP1 (human) (UniProt Q86V48)
T1 sequence: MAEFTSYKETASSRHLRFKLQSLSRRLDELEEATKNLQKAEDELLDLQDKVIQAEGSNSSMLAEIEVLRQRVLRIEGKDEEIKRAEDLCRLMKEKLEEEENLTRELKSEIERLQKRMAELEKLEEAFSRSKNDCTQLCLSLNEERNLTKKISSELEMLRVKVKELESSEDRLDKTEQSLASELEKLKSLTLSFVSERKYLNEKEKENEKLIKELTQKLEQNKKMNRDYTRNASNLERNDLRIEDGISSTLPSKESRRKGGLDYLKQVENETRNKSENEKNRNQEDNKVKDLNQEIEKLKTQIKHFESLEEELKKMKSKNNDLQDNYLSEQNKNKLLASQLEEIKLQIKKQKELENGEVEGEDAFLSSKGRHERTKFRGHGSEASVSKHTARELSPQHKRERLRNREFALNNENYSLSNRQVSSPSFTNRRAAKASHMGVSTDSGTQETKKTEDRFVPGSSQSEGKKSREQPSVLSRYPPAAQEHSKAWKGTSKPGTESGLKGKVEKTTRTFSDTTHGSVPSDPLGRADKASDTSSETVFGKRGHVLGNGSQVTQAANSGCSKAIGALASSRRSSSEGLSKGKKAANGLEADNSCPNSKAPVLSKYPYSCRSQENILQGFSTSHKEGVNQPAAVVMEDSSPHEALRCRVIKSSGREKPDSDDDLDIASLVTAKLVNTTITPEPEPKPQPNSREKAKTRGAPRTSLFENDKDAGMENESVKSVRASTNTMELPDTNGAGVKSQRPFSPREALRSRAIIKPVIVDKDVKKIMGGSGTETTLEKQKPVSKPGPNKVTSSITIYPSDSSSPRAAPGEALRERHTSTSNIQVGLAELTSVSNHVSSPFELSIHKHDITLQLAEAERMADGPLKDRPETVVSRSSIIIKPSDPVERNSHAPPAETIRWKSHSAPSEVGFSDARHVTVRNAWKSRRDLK

The chains behind the UniProt entries cited, without tags or fusion partners.
UniProt Q96GD4: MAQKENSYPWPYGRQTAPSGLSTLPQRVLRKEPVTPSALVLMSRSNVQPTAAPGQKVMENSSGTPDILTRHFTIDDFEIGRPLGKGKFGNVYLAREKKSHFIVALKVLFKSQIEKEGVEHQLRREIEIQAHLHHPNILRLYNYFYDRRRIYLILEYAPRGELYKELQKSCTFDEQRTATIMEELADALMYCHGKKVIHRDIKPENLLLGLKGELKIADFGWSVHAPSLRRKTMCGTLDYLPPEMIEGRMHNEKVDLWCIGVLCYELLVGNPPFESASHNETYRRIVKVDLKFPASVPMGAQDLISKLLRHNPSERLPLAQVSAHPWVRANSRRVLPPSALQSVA

[2] = molecular target: T2, Flag-aa 1-920 LUZP1 (human) (UniProt Q86V48)
T2 sequence: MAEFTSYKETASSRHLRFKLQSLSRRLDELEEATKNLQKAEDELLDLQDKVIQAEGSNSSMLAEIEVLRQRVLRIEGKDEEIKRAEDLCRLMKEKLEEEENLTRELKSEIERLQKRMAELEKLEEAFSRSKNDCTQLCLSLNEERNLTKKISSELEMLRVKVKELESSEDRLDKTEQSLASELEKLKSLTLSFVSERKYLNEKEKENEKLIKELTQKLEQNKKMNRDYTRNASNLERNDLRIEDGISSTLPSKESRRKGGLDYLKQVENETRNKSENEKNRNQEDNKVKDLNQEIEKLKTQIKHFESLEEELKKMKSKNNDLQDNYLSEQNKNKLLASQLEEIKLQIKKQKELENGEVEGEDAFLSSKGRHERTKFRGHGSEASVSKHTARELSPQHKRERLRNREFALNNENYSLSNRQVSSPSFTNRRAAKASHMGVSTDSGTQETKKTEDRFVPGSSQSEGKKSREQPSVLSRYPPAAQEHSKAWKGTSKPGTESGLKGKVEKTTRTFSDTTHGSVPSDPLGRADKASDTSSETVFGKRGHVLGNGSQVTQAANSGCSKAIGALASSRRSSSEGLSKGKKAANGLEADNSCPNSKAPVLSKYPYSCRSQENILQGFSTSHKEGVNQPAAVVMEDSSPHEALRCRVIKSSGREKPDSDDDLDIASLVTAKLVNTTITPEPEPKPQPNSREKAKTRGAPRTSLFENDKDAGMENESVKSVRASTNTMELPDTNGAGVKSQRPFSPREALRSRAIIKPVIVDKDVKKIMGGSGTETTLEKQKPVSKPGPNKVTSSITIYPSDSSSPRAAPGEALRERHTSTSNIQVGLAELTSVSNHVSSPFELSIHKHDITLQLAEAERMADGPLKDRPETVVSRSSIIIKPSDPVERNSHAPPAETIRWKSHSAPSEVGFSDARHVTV

[3] = molecular target: T3, Flag-tagged full-length LUZP1 (leucine zipper protein 1) (human) (UniProt Q86V48)
T3 sequence: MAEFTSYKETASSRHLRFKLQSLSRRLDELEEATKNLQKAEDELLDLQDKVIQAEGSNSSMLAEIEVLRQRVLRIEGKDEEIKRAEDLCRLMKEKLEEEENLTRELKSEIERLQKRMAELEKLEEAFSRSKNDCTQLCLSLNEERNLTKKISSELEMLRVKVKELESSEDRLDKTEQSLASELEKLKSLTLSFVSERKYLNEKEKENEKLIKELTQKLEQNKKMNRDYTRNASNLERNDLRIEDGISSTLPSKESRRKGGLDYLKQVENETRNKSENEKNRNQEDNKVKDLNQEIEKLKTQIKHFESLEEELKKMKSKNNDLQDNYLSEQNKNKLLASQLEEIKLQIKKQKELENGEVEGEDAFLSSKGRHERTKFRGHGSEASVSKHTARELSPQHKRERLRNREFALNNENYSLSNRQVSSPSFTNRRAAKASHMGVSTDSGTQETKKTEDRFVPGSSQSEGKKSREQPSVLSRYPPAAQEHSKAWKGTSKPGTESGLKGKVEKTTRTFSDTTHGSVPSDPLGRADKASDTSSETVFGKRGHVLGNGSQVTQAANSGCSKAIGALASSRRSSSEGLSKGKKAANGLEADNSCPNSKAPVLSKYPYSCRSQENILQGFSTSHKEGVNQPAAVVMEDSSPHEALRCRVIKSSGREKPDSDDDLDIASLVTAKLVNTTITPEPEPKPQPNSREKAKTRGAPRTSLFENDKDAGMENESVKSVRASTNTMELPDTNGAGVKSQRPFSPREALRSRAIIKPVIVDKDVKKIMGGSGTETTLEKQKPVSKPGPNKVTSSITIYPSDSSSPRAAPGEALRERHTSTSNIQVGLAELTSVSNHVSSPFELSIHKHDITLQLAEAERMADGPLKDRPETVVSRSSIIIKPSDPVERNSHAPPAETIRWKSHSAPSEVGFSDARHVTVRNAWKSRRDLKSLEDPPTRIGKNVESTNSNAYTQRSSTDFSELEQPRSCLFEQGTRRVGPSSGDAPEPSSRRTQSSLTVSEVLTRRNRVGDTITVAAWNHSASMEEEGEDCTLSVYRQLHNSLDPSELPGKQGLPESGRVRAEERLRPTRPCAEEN

Measured: binding

GFP-tagged full length AURKB (from UniProt Q96GD4 1-344) (enzyme)
binds: all assays above

Reference: publication doi:10.1101/2022.07.04.498656
